Values from PubChem BioAssay AID1259299 (Sanger Institute, 2017)
Here is one part, drawn at random, of 794 deposited reagents. 9 of them (1.1%) were called active. 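Calls rest on knock-down alone; synergy scores play no part in calls, and no gene passed the synergy cut.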 A number with no mark means an inactive call. No viability above 1 is reported: the scale is capped. Not given: the amount of reagent, the time to read-out.

Aim: 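Kinases and colorectal mutated genes needed by colorectal cancer cells, with or without drugs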 (primary screen)
System: human CAR1 colorectal cancer cells
Reagents: siRNA pool against human genes
Treatment: anchor drug BYL719 1 µM, cetuximab 5 µg/ml or trametinib 10 nM, or DMSO vehicle alone; exposure length not given
Measurement: 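Mean replicate viability versus non-targeting controls, turned into robust z-scores, plus drug synergy scores for BYL719, cetuximab and trametinib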
Reading the numbers: viability robust z-score, knock-down alone and viability, knock-down alone (DMSO): higher = more viable cells; synergy score with BYL719 and synergy score with cetuximab and synergy score with trametinib: higher = stronger synergy with drug (synthetic lethal)
Call rule: 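Essential when viability robust z-score with knock-down alone (DMSO) is below -3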
Calls: active = essential (knock-down alone); inactive = no change

Gene	viability robust z-score, knock-down alone	viability, knock-down alone (DMSO) (fraction of control)	synergy score with BYL719	synergy score with cetuximab	synergy score with trametinib
PSTK (GeneID 118672)	0.71	0.993	-0.0527	0.0442	0.0499
STK39 (GeneID 27347)	-1.21	0.815	-0.116	-0.0131	-0.0629
PHKA1 (GeneID 5255)	0.573	0.98	-0.137	-0.0915	-0.0845
RIOK3 (GeneID 8780)	0.609	0.983	-0.00874	-0.0317	-0.0471
CPNE3 (GeneID 8895)	0.195	0.945	-0.0469	-0.117	-0.264
POLR2B (GeneID 5431)	0.415	0.965	-0.0388	-0.0218	-0.102
DAPK3 (GeneID 1613)	-0.0434	0.923	-0.0834	-0.0503	-0.0812
BMX (GeneID 660)	0.789	1	-0.167	-0.073	-0.0842
PCBP1 (GeneID 5093)	0.0472	0.932	-0.137	-0.116	-0.0826
MAP3K1 (GeneID 4214)	0.283	0.953	-0.0614	-0.0231	0.0363
AK5 (GeneID 26289)	-1.17	0.819	-0.218	-0.049	-0.143
CSNK2B (GeneID 1460)	-1.84	0.757	-0.134	-0.0223	0.011
GNAS (GeneID 2778)	-0.118	0.916	-0.065	-0.0446	-0.0204
ABL2 (GeneID 27)	0.476	0.971	-0.0843	-0.0998	-0.0531
ALPK1 (GeneID 80216)	-0.17	0.911	-0.0362	-0.0548	-0.0471
CSF1R (GeneID 1436)	-1.53	0.786	-0.146	-0.144	-0.0723
PRKD2 (GeneID 25865)	0.789	1	-0.206	-0.073	-0.0776
SPEG (GeneID 10290)	0.789	1	-0.13	-0.0128	-0.0514
MAST4 (GeneID 375449)	0.789	1	-0.192	-0.0541	-0.0534
TNNI3K (GeneID 51086)	-1.76	0.765	-0.305	-0.291	-0.0643
TAOK3 (GeneID 51347)	0.789	1	-0.0818	0.00249	-0.0557
MAP4K3 (GeneID 8491)	0.396	0.964	-0.112	-0.017	0.0531
CDK16 (GeneID 5127)	-1.15	0.821	-0.17	-0.0249	-0.108
GATA3 (GeneID 2625)	-0.237	0.905	-0.113	-0.115	-0.189
NAGK (GeneID 55577)	0.192	0.945	-0.161	0.0005	-0.0921
AK7 (GeneID 122481)	-0.00184	0.927	-0.172	-0.141	-0.268
IGF2R (GeneID 3482)	0.789	1	-0.178	-0.073	-0.18
AXL (GeneID 558)	0.789	1	-0.1	-0.0511	-0.191

Sorted by “synergy score with trametinib” (descending): some entries from above.
Gene	viability robust z-score, knock-down alone	viability, knock-down alone (DMSO) (fraction of control)	synergy score with BYL719	synergy score with cetuximab	synergy score with trametinib
MAP3K1 (GeneID 4214)	0.283	0.953	-0.0614	-0.0231	0.0363
DAPK3 (GeneID 1613)	-0.0434	0.923	-0.0834	-0.0503	-0.0812
PCBP1 (GeneID 5093)	0.0472	0.932	-0.137	-0.116	-0.0826
BMX (GeneID 660)	0.789	1	-0.167	-0.073	-0.0842
AK5 (GeneID 26289)	-1.17	0.819	-0.218	-0.049	-0.143

Continued.
Gene	viability robust z-score, knock-down alone	viability, knock-down alone (DMSO) (fraction of control)	synergy score with BYL719	synergy score with cetuximab	synergy score with trametinib
SGK1 (GeneID 6446)	0.421	0.966	-0.113	-0.0576	-0.0827
PDPK1 (GeneID 5170)	0.332	0.958	-0.0787	-0.0635	-0.0728
FGFR4 (GeneID 2264)	0.789	1	-0.0833	0.0259	-0.143
PTK2B (GeneID 2185)	0.643	0.987	-0.12	-0.00474	0.0167
DDR2 (GeneID 4921)	0.789	1	-0.137	0.00219	-0.0888
EPHA2 (GeneID 1969)	0.789	1	-0.126	-0.073	-0.12
PNKP (GeneID 11284)	-1.74	0.766	-0.194	-0.152	0.0523
IKBKE (GeneID 9641)	-0.221	0.907	-0.224	-0.151	-0.0715
GNE (GeneID 10020)	0.591	0.982	-0.0838	-0.0538	-0.0957
EPHA10 (GeneID 284656)	-1.68	0.772	-0.181	-0.144	-0.0631
CSNK2A1 (GeneID 1457)	0.789	1	-0.129	-0.073	-0.13
BRSK2 (GeneID 9024)	0.789	1	-0.159	-0.073	-0.0988
RBM10 (GeneID 8241)	0.484	0.972	-0.0825	-0.0701	0.0806
FYN (GeneID 2534)	-0.208	0.908	-0.153	-0.121	-0.0898
CDK20 (GeneID 23552)	-0.365	0.893	-0.129	-0.0857	-0.0858
RYK (GeneID 6259)	-0.0965	0.918	-0.115	-0.149	-0.163
PRKCE (GeneID 5581)	-0.467	0.884	-0.0688	0.0292	-0.00504
MAP2K7 (GeneID 5609)	0.638	0.986	-0.0036	-0.000938	0.114
CIT (GeneID 11113)	-0.901	0.844	0.102	0.0664	0.114
CLSPN (GeneID 63967)	0.789	1	0.0392	0.0317	0.0804
MAP3K8 (GeneID 1326)	0.387	0.963	0.0394	0.045	-0.00313
CSNK1G3 (GeneID 1456)	0.789	1	-0.166	-0.073	-0.2
